In publication PMC6456674:
Results are given in words; binding and its absence hold for the method and conditions named. For some of these results: Binding seen in cells or lysates may run through a third protein. Some binding calls cover weakened binding; strength is not graded here.

Protein sequences, listed by entry. Tags and fused reporters are not part of them.
UniProt P70606: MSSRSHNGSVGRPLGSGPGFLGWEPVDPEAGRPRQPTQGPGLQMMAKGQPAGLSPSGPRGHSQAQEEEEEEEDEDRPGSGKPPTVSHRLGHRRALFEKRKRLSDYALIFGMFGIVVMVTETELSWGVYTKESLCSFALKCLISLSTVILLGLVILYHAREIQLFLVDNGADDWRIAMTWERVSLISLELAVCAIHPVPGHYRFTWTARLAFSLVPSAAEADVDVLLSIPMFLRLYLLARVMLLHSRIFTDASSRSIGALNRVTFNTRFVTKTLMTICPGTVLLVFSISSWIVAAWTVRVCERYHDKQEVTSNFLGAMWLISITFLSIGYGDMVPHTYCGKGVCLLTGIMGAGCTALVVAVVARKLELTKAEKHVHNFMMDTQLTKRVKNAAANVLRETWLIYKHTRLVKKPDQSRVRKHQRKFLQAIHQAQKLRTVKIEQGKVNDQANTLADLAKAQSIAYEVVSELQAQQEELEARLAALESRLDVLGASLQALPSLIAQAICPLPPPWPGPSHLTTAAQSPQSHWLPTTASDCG
UniProt P70604: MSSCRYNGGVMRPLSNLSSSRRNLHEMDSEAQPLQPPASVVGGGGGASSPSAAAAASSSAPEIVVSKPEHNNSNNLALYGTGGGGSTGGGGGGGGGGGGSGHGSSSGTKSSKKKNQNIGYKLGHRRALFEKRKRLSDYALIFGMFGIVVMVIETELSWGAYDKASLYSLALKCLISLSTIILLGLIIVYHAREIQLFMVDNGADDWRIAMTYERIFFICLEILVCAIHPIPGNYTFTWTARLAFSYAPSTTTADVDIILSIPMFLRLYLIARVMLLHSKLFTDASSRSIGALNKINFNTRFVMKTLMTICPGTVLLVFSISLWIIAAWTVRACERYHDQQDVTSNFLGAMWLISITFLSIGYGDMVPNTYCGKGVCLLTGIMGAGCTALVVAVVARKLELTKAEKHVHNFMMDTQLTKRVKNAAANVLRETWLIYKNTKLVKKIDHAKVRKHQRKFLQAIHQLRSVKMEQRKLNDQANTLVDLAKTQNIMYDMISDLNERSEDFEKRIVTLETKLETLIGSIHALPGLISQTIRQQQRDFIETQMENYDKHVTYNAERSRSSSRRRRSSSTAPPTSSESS

Tests used:
[1] = target: rat SK1 tagged with HA (rSK1-HA) (rat) (UniProt P70606); experiment: SDS-PAGE and western blot (oligomer bands); lysates and biotinylated membrane fraction of transfected Cosm6 cells; samples boiled in SDS sample buffer with 100 mM DTT, 4-12% Bis-Tris gels, blots probed with Myc or HA antibody
[2] = target: rat SK2 tagged with triple Myc (rSK2-Myc) (rat) (UniProt P70604); experiment: co-IP; Cosm6 cells transfected with rSK1-HA and/or rSK2-Myc; solubilised protein precleared, immunoprecipitated overnight at 4°C with mouse anti-Myc (protein G sepharose) or rabbit anti-HA (protein A sepharose); pellets washed three times in RIPA buffer (150 mM NaCl, 1% Triton X-100, 0.5% sodium deoxycholate, 0.1% SDS, 50 mM Tris pH 8.0); immunoblotted with Myc or HA antibody
[3] = target: rat SK2 tagged with triple Myc (rSK2-Myc) (rat) (UniProt P70604); experiment: SDS-PAGE and western blot (oligomer bands); lysates and biotinylated membrane fraction of transfected Cosm6 cells; samples boiled in SDS sample buffer with 100 mM DTT, 4-12% Bis-Tris gels, blots probed with Myc or HA antibody
[4] = target: rat SK1 tagged with HA (rSK1-HA) (rat) (UniProt P70606); experiment: co-IP; Cosm6 cells transfected with rSK1-HA and/or rSK2-Myc; solubilised protein precleared, immunoprecipitated overnight at 4°C with mouse anti-Myc (protein G sepharose) or rabbit anti-HA (protein A sepharose); pellets washed three times in RIPA buffer (150 mM NaCl, 1% Triton X-100, 0.5% sodium deoxycholate, 0.1% SDS, 50 mM Tris pH 8.0); immunoblotted with Myc or HA antibody

Row | binding [1] | binding [2] | binding [3] | binding [4] | Substance
1 | binds | binds | – | – | rat SK1 tagged with HA (rSK1-HA) (from UniProt P70606 1-536)
2 | – | – | binds | binds | rat SK2 tagged with triple Myc (rSK2-Myc) (from UniProt P70604 1-580)
